Results are given in words; binding and its absence hold for the method and conditions named. Some binding calls cover weakened binding; strength is not graded here.
Columns and labels:
Assay in all cases: cryo-EM structure; Pd-CI purified whole from P. denitrificans membranes in DDM (His-Trap, size exclusion), reconstituted into MSP2N2 phospholipid nanodiscs with ubiquinone-10; 2.3 Å consensus map, 2.5 Å focussed map of ND4-ND5; both purified
[1] = target: T1, Pd-ND3 (Nqo7), core subunit of P. denitrificans complex I (Paracoccus denitrificans) (UniProt P29919)
T1 sequence (chain, formyl-Met at the N-terminus (modelled from additional density)): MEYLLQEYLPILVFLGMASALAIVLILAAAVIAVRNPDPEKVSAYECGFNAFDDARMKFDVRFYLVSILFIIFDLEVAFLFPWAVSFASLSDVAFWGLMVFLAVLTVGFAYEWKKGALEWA

[2] = target: T2, Pd-ND1 (Nqo8), core subunit of P. denitrificans complex I (Paracoccus denitrificans) (UniProt P29920)
T2 sequence: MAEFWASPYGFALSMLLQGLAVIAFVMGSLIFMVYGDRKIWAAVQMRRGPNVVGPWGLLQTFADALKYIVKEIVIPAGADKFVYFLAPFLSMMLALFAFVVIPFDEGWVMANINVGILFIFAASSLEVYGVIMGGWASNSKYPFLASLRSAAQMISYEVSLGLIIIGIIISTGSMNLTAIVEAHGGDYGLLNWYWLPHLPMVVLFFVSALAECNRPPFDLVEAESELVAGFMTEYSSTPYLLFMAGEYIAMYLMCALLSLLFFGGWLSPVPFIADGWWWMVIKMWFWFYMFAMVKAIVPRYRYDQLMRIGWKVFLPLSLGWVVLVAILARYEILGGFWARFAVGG

[3] = target: T3, Pd-ND4L (Nqo11), core subunit of P. denitrificans complex I (Paracoccus denitrificans) (UniProt P29923)
T3 sequence: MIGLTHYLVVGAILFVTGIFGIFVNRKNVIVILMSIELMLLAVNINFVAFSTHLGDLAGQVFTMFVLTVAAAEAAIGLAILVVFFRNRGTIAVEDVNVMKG

Measured: binding

B1: Pd-NDUFS2 (Nqo4), core subunit of P. denitrificans complex I (protein, UniProt P29916 1-412)
chain: MDGDIRKNSLDDGSMDALTGEQSIRNFNINFGPQHPAAHGLLRMVLELDGEIVERADPHIGLLHRGTEKLMESRTYLQNLPYLDRLDYVAPMNQEHAWCLAIERLTGTVIPRRASLIRVLYSEIGRILNHLMGVTTGAMDVGALTPPLWGFEAREELMIFYERACGARLHAAYFRPGGVHQDLPPDLLDDIEEWCERFPKLVDDLDTLLTENRIFKQRLVDIGIVTEADALDWGYTGVMVRGSGLAWDLRRSQPYECYDEFDFQIPVGRNGDCYDRYLCRMAEMRESCKIMQQAVQKLRAEPAGDVLARGKLTPPRRAEMKRDMESLIHHFKLYTEGFKVPAGEVYAAVEGPKGEFGVYLVADGTNKPWRAKLRAPGFAHLQSIDWMSRGHMLADVPAIIATLDIVFGEVDR
modifications: dimethyl-arginine at position 65
binds: [1] | [2] | [3]

— PMC11522691, “Structure of the turnover-ready state of an ancestral respiratory complex I” (Nature Communications, 2024)
